Results deposited as PubChem BioAssay AID743121 (NCATS, 2013).

- Purpose: 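Knock-downs that sensitise breast cancer cells to camptothecin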 (primary screen)
- System: MDA-MB-231 cells, a human breast cancer line
- Reagent: single siRNA against human genes, 20 nM siRNA (0.8 pmol per well)
- Time to read-out: 120 h (drug added 48 h after transfection, read 72 h later)
- Conditions: camptothecin 20 nM (about EC30) for 72 h; vehicle 0.1% DMSO in parallel plates
- Read-out: 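CellTiter-Glo ATP signal, scaled to control siRNA as percent viability; sensitisation given as log2 of untreated divided by camptothecin-treated viability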
- Scale: log2 vehicle/camptothecin viability: higher = stronger sensitisation to camptothecin
- Active means: 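Each gene scored by redundant siRNA activity (RSA) over its individual siRNA ratios; a gene is called active at p < 0.001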
The whole screen tested about 26,000 reagents; shown is an unselected part. Over the whole deposit, 167 (0.63%) are marked active. 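Calls are per gene from RSA p-values that are not deposited; an individual active-marked siRNA can sensitise only weakly.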 The numbers tell different reagents against one gene apart. Not all columns of the deposit are shown.

{"target":"ITGA3 (integrin subunit alpha 3)","siRNA no.":1,"log2 vehicle/camptothecin viability":-0.0508,"activity call":"inactive"}
{"target":"ITGA3 (integrin subunit alpha 3)","siRNA no.":2,"log2 vehicle/camptothecin viability":0.291,"activity call":"inactive"}
{"target":"ITGA3 (integrin subunit alpha 3)","siRNA no.":3,"log2 vehicle/camptothecin viability":-0.381,"activity call":"inactive"}
{"target":"ITGA3 (integrin subunit alpha 3)","siRNA no.":4,"log2 vehicle/camptothecin viability":-0.00986,"activity call":"inactive"}
{"target":"CD28 (CD28 molecule)","siRNA no.":1,"log2 vehicle/camptothecin viability":0.1,"activity call":"inactive"}
{"target":"CD28 (CD28 molecule)","siRNA no.":2,"log2 vehicle/camptothecin viability":-0.141,"activity call":"inactive"}
{"target":"CD28 (CD28 molecule)","siRNA no.":3,"log2 vehicle/camptothecin viability":-0.291,"activity call":"inactive"}
{"target":"CD28 (CD28 molecule)","siRNA no.":4,"log2 vehicle/camptothecin viability":0.0969,"activity call":"inactive"}
{"target":"PRKCE (protein kinase C epsilon)","siRNA no.":1,"log2 vehicle/camptothecin viability":-0.253,"activity call":"inactive"}
{"target":"PRKCE (protein kinase C epsilon)","siRNA no.":2,"log2 vehicle/camptothecin viability":-0.0206,"activity call":"inactive"}
{"target":"PRKCE (protein kinase C epsilon)","siRNA no.":3,"log2 vehicle/camptothecin viability":0.114,"activity call":"inactive"}
{"target":"PRKCE (protein kinase C epsilon)","siRNA no.":4,"log2 vehicle/camptothecin viability":-0.114,"activity call":"inactive"}
{"target":"TP53I11 (tumor protein p53 inducible protein 11)","siRNA no.":1,"log2 vehicle/camptothecin viability":-0.235,"activity call":"inactive"}
{"target":"TP53I11 (tumor protein p53 inducible protein 11)","siRNA no.":2,"log2 vehicle/camptothecin viability":-0.0252,"activity call":"inactive"}
{"target":"TP53I11 (tumor protein p53 inducible protein 11)","siRNA no.":3,"log2 vehicle/camptothecin viability":-0.0268,"activity call":"inactive"}
{"target":"TP53I11 (tumor protein p53 inducible protein 11)","siRNA no.":4,"log2 vehicle/camptothecin viability":-0.229,"activity call":"inactive"}
